According to article PMC3855701:
These are yes or no findings as the source states them, for the method shown. In cells and extracts the contact can be indirect. Some entries that bind do so weakly or less than the wild type.

Chains of the proteins cited; added tags and fusions are not shown. Residues count along the entry.
UniProt P63038, residues 27-573: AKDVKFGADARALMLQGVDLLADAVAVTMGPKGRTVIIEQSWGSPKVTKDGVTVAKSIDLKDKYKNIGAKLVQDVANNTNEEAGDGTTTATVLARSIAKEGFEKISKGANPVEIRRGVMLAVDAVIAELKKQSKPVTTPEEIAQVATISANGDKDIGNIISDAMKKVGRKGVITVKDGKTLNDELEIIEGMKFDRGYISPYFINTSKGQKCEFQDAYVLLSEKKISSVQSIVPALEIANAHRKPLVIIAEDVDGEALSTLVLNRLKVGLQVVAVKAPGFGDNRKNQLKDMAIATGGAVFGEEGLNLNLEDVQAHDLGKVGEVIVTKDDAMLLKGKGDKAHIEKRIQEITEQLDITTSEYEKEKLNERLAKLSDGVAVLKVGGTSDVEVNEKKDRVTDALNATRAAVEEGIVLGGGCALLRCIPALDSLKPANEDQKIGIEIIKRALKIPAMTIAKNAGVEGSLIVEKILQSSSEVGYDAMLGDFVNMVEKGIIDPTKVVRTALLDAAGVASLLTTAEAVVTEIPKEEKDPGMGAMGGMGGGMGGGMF
UniProt P38647, residues 47-679: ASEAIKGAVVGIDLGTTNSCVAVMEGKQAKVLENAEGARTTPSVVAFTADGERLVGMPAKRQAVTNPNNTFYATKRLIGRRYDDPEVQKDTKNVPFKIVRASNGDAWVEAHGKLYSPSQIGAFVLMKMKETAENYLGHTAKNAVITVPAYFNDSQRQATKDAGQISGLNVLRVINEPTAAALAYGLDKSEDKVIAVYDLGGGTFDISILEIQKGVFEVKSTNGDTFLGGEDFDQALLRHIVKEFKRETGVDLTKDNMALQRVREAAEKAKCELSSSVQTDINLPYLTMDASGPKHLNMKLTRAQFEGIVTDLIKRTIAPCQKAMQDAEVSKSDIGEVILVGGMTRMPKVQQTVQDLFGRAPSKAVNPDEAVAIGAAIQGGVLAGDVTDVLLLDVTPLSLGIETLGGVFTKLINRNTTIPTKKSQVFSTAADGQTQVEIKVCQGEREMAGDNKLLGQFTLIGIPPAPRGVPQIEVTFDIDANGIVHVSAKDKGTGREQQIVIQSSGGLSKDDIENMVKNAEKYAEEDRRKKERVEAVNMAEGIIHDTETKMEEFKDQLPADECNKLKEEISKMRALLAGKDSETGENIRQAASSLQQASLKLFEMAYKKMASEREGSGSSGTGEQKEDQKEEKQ

Legend:
[1] = target: T1, Mitochondrial transcription factor A (mouse (endogenous in quadriceps femoris muscle)) (UniProt P40630); assay: co-IP; anti-TFAM antibody on protein A/G plus agarose beads; isolated mitochondria lysates (200 ug) of quadriceps femoris muscle solubilized with 1% n-dodecyl maltoside, overnight at 4°C; eluted with 1% SDS; blots for GRP75 and HSP60; Sod2+/+ and Sod2+/- mice, sedentary or exercise trained
T1 sequence: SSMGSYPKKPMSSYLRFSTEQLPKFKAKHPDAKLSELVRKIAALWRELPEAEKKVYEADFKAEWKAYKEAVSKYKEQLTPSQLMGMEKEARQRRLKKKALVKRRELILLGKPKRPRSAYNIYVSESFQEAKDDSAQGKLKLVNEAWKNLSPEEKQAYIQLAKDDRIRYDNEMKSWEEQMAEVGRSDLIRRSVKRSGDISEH

[2] = target: T1, Mitochondrial transcription factor A (mouse (endogenous in quadriceps femoris muscle)); assay: condition: only sample heat denatured at 95°C before the immunoprecipitation; co-IP; as the TFAM immunoprecipitation, but the sample was heat denatured at 95°C (5 minutes) before the immunoprecipitation (control, Figure S3C)

binding [1]	binding [2]	Substance
binds	no binding	HSP60 (from UniProt P63038 27-573)
binds	no binding	GRP75 (from UniProt P38647 47-679)
